# Measurements reported in PubChem BioAssay AID686943 (Drosophila RNAi Screening Center, 2013)
# Aim: 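Fly genes whose loss alters ERK activation after insulin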 (primary screen)
# System: Drosophila S2R+ haemocyte-like cells expressing YFP-tagged ERK (Rolled)
# Reagents: long dsRNA against Drosophila genes
# Challenge: insulin stimulation versus unstimulated cells; dose and duration not given
# Measurement: 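Antibody staining for doubly phosphorylated ERK divided by ERK-YFP signal, as plate z-scores, in insulin-treated and untreated cells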
# Direction: replicate 1, z-score of dpERK with insulin and replicate 2, z-score of dpERK with insulin: higher = more active ERK per ERK-YFP after insulin; replicate 1, z-score of dpERK under basal conditions: higher = more basal active ERK per ERK-YFP; replicate 1, z-score of ERK-YFP with insulin: higher = more YFP-tagged ERK signal
# The deposit covers about 23,000 reagents; below is a random part of those with a known target gene and a result. 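Extra replicates exist only for a retested subset of genes; insulin dose and duration not given; both raised and lowered dpERK matter.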 The numbers tell different reagents against one gene apart. Names joined by + are all predicted targets of the reagent. Reagent sequences are not shown. Not given: the amount of reagent, the time to read-out.
predicted target,reagent,"replicate 1, z-score of dpERK with insulin","replicate 2, z-score of dpERK with insulin","replicate 1, z-score of dpERK under basal conditions","replicate 1, z-score of ERK-YFP with insulin"
CG2680,1,-0.21,0.8,0.75,0.38
Tlk (Tousled-like kinase),1,-0.32,-1.18,0.35,0.17
Tlk (Tousled-like kinase),2,0.08,0.28,-0.92,-0.83
Tlk (Tousled-like kinase),3,-3.82,-3.66,-0.79,-0.82
Tlk (Tousled-like kinase),4,-0.11,0.74,0.94,-1.59
Tlk (Tousled-like kinase),5,0.58,-0.33,1.89,-3.32
Tlk (Tousled-like kinase),6,0.57,-0.29,0.05,-0.02
CG13312,1,-0.58,0.29,1.06,0.86
CAH6 (Carbonic anhydrase 6),1,0.5,0,-1.17,-0.56
CG9514,1,0.31,0.07,0.32,0.22
CG9514,2,0.48,0.21,2.04,0.65
ABCB7 (ATP binding cassette subfamily B member 7),1,-0.6,0.45,0.75,-0.15
Pi3K59F (Phosphatidylinositol 3-kinase 59F),1,-0.05,-0.06,-0.05,-0.04
CG33758,1,0.58,0.28,-0.42,-0.17
CG15083,1,-0.08,0.15,-1.2,0.39
MED10 (Mediator complex subunit 10),1,1.26,0.92,-0.9,-2.16
Pgls (6-phosphogluconolactonase),1,1,0.06,-1.1,-0.46
Hers + amn,1,0.13,0.19,-0.17,0.11
CG13032,1,0.42,0.27,0.82,0.72
"Adat1 (Adenosine deaminase, tRNA-specific 1)",1,-0.74,-0.31,0.86,1.05
CG14339,1,-0.92,0.18,-0.03,-0.35
GCC88 (GRIP and coiled-coil domain containing 88 kDa),1,0.11,0.09,0.27,-0.33
Surf4 (Surfeit 4),1,0.34,0.48,0.19,0.07
Ir60a (Ionotropic receptor 60a),1,-0.19,-1.35,-0.8,0.01
Dhc93AB (Dynein heavy chain at 93AB),1,0.43,-0.09,0.52,0.35
to (takeout),1,0.42,-0.4,-1.42,-0.58
et (eye transformer),1,0.07,0.42,-1.86,-0.49
Rpn5 (Regulatory particle non-ATPase 5),1,-2.58,-3.02,-2.35,-0.1
TwdlN (TweedleN),1,-1.12,-1.45,0.07,0.66
CG6749,1,-0.36,-0.08,0.04,0.4
Tsp74F (Tetraspanin 74F),1,-0.39,-0.34,-0.82,0.15
Tim17a2,1,0.26,-0.77,0.01,1
su(r) (suppressor of rudimentary),1,1.49,0.97,0.71,-0.77
crim (crimpled),1,0.77,2.19,-0.08,0.29
Chs2 (Chitin synthase 2),1,0.25,0.96,0.28,0.36
CG13984,1,-0.39,-0.3,-0.84,1.76
CG6230,1,0.47,-0.21,0.23,0.39
CG13872,1,0.16,-0.09,-0.65,-0.51
CG42322,1,0.37,0.27,-0.22,0.88
CG42322,2,0.56,0.14,0.9,0.1
CG42322,3,-0.83,-0.81,-0.95,3.57
CG1161,1,-7.33,-5.92,-4.4,0.52
Not1,1,-1.61,-2.33,1.62,-3.54
Not1,2,-3.32,-2.09,0.99,-2.64
PyK (Pyruvate kinase),1,-0.3,-0.38,0.54,0.59
Eig71Ee (Ecdysone-induced gene 71Ee),1,-0.36,0.1,1.59,0.96
CG32106,1,0.31,0.48,0.91,-0.27
P5CS (Delta[1]-pyrroline-5-carboxylate synthase),1,0.02,0.27,-0.3,-0.26
P5CS (Delta[1]-pyrroline-5-carboxylate synthase),2,-0.19,-0.72,0.28,0.39
CR12798 (pseudo),1,0.16,-0.26,-0.14,-0.1
Uch-L5 (Ubiquitin carboxy-terminal hydrolase L5),1,-1.09,-0.1,0.74,-0.1
bip1,1,0.25,0.3,0.13,-0.56
rtet (tetracycline resistance),1,0.74,0.08,-0.44,1.04
CG2663,1,0.69,1.75,0.74,0.47
CG2321,1,-0.04,-0.32,-0.84,-2.73
CG11313,1,0.52,-0.21,-0.27,0.69
RagA-B (Ras-related GTP binding A/B),1,1.54,-0.52,-0.22,-1.01

An excerpt from the list above:
predicted target,reagent,"replicate 1, z-score of dpERK with insulin","replicate 2, z-score of dpERK with insulin","replicate 1, z-score of dpERK under basal conditions","replicate 1, z-score of ERK-YFP with insulin"
MED10 (Mediator complex subunit 10),1,1.26,0.92,-0.9,-2.16
Pgls (6-phosphogluconolactonase),1,1,0.06,-1.1,-0.46
Hers + amn,1,0.13,0.19,-0.17,0.11
CG13032,1,0.42,0.27,0.82,0.72
